The text below walks through data of paper PMC6826137.

Chains of the proteins cited; added tags and fusions are not shown. Lines headed by an entry give the natural chain unless they say otherwise; changes in a name come on top. Residues count along the entry.
UniProt Q92743: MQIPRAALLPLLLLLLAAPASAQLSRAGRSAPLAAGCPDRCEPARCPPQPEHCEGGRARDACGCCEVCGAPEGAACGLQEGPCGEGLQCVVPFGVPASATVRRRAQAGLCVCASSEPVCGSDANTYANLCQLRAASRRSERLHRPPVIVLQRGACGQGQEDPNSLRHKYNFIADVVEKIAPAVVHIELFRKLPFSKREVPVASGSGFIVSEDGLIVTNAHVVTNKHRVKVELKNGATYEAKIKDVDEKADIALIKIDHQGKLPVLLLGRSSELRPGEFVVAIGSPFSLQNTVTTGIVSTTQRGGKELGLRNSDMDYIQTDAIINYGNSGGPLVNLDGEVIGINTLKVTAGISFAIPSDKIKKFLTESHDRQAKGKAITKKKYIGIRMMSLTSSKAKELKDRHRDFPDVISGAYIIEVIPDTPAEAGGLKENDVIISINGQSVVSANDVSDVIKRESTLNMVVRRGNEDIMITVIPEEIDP
HTRA1 (high temperature requirement A serine peptidase 1) in ARPE-19 lysate (human (endogenous in ARPE-19)): residues 23-480 of Q92743

Where a chain is given by its changes, count along the chain named. Numbers in names are those of the source. No constants are given. Whether binding was seen depends on the method and setting. For some assays here: Binding seen in cells or lysates may run through a third protein. Some entries that bind do so weakly or less than the wild type. Where a sequence is shown, tags or fusion partners need not be part of it.

Assay [1] has as its target T1, Full-length WT-CTRP5 fused to the binding domain (BD) of GAL4 (UniProt Q9BXJ0).
T1 sequence: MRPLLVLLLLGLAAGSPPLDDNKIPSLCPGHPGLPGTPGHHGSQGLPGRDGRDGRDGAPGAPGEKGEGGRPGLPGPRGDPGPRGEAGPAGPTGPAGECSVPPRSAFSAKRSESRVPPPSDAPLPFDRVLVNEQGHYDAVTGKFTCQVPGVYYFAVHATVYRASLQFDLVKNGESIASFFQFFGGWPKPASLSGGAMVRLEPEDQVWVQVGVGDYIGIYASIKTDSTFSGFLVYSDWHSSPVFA
The assay is described as follows: two-hybrid; pairwise Y2H; GAL4 BD baits (CTRP5 forms) and GAL4 AD preys; growth on SD-Leu-Trp-His with 3-AT (1-10 mM) against SD-Leu-Trp; serial 10-fold dilutions.

Assay [2] deals with T2, S163R-CTRP5 fused to the binding domain (BD) of GAL4 (UniProt Q9BXJ0).
T2 sequence: T1 sequence with S163R
The description is as above.

Assay [3] deals with T1, Full-length WT-CTRP5 fused to the binding domain (BD) of GAL4. Kind of assay: two-hybrid; Matchmaker Gold Y2H library screen by mating; BD-CTRP5 as bait against a universal, normalized human cDNA library (TaKaRa) in pGADT7-RecAB; high-stringency plating.
For assay [4], the target named is T3, WT-CTRP5-V5 fusion protein (UniProt Q9BXJ0).
T3 sequence: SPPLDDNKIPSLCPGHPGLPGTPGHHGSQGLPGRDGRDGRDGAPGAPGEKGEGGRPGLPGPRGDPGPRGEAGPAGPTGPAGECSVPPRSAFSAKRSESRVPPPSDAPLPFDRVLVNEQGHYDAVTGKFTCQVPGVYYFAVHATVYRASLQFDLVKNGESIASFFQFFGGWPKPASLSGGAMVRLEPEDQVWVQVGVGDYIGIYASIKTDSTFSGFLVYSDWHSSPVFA
The assay is described as follows: co-IP; lysates of ARPE-19 cells overexpressing WT-CTRP5-V5 or S163R-CTRP5-V5; IP with HTRA1 antibody, and reverse IP with anti-V5 antibody; immunoblots with anti-V5 and HTRA1 antibodies; normal rabbit IgG as control.

Assay [5] concerns the target T4, S163R-CTRP5-V5 fusion protein (UniProt Q9BXJ0).
T4 sequence: T3 sequence with S148R
The assay is described as above.

For assay [6], the target named is T5, BD-CTRP5 (∆PDZ-ligand) (aa 1-238) (UniProt Q9BXJ0).
T5 sequence: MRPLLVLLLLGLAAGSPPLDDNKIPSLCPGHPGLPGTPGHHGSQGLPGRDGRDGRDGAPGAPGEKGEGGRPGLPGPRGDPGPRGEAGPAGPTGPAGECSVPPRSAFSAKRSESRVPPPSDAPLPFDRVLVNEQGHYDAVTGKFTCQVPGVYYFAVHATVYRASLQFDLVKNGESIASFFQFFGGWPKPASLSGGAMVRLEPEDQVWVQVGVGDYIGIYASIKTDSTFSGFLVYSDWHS
The assay is described as follows: two-hybrid; pairwise Y2H; GAL4 BD baits (CTRP5 forms) and GAL4 AD preys; growth on SD-Leu-Trp-His with 3-AT (1-10 mM) against SD-Leu-Trp; serial 10-fold dilutions.

The target of assay [7] is T1, Full-length WT-CTRP5 fused to the binding domain (BD) of GAL4. The description is as above. This is another data set of the same source.
The target in assay [8] is HTRA1 (high temperature requirement A serine peptidase 1) in ARPE-19 lysate (human (endogenous in ARPE-19)) (UniProt Q92743). Kind of assay: co-IP; lysates of ARPE-19 cells overexpressing WT-CTRP5-V5 or S163R-CTRP5-V5; IP with HTRA1 antibody, and reverse IP with anti-V5 antibody; immunoblots with anti-V5 and HTRA1 antibodies; normal rabbit IgG as control.

For the molecule “AD-CL53 HTRA1 (306-480aa) (from UniProt Q92743 306-480) (domain or fragment)”, the binding entry in assay [1], in assay [2] and in assay [3] was “binds” in each case.
As for “HTRA1 (high temperature requirement A serine peptidase 1) in ARPE-19 lysate (from UniProt Q92743 23-480) (enzyme)”, the binding result in assay [4] and in assay [5] was “binds” throughout.
On to “ΔFS-HTRA1 (144-480 aa) fused with the AD domain of GAL4 (from UniProt Q92743 144-480) (domain or fragment)”, for which the binding result in assay [2] is given as “binds”.

B1: Full-length WT-CTRP5 fused to the binding domain (BD) of GAL4 (protein, UniProt Q9BXJ0 1-243)
chain: T1 sequence
B1: the binding result in assay [6] and in assay [7] was “binds” in each case.

B2: Membrane frizzled-related protein (MFRP) (protein, UniProt Q9BY79 1-579)
chain: MKDFSDVILCMEATESSKTEFCNPAFEPESGPPCPPPVFPEDASYSVPAPWHGRRPRGLRPDCRFSWLCVLLLSSLLLLLLGLLVAIILAQLQAAPPSGASHSPLPAGGLTTTTTTPTITTSQAAGTPKGQQESGVSPSPQSTCGGLLSGPRGFFSSPNYPDPYPPNTHCVWHIQVATDHAIQLKIEALSIESVASCLFDRLELSPEPEGPLLRVCGRVPPPTLNTNASHLLVVFVSDSSVEGFGFHAWYQAMAPGRGSCAHDEFRCDQLICLLPDSVCDGFANCADGSDETNCSAKFSGCGGNLTGLQGTFSTPSYLQQYPHQLLCTWHISVPAGHSIELQFHNFSLEAQDECKFDYVEVYETSSSGAFSLLGRFCGAEPPPHLVSSHHELAVLFRTDHGISSGGFSATYLAFNATENPCGPSELSCQAGGCKGVQWMCDMWRDCTDGSDDNCSGPLFPPPELACEPVQVEMCLGLSYNTTAFPNIWVGMITQEEVVEVLSGYKSLTSLPCYQHFRRLLCGLLVPRCTPLGSVLPPCRSVCQEAEHQCQSGLALLGTPWPFNCNRLPEAADLEACAQP
Consider B2, for which the binding result in assay [7] is recorded as “binds”.

B3: WT-CTRP5-V5 fusion protein (protein, UniProt Q9BXJ0 16-243)
chain: T3 sequence
For the molecule B3, the binding entry in assay [8] was “binds”.

B4: S163R-CTRP5-V5 fusion protein (protein, UniProt Q9BXJ0 16-243)
chain: T3 sequence with S148R
For B4, the binding entry in assay [8] is recorded as “binds”.
